{"source": "paper PMC12579238", "biological_target": "T1, CLN7 (human (endogenous in SH-SY5Y)) (UniProt Q8NHS3)", "T1 sequence": "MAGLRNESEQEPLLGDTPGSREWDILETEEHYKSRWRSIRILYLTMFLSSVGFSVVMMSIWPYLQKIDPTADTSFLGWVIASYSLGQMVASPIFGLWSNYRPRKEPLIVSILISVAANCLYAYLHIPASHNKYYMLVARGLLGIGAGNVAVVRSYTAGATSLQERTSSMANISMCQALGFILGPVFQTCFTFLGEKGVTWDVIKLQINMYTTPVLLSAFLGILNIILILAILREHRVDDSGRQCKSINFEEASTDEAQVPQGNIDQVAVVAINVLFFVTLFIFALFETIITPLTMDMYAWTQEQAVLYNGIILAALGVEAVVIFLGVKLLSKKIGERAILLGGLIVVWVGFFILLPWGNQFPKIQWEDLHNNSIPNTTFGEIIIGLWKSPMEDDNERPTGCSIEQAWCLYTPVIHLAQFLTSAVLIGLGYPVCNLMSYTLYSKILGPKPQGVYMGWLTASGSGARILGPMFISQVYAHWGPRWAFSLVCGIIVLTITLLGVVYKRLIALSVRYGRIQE", "experiment": "affinity purification with mass spectrometry; endogenous CLN7 immunoprecipitated from 2.5 mg SH-SY5Y lysate with a polyclonal anti-CLN7 antibody raised against L9 (351-421aa, Proteintech) on G-sepharose beads; IgG as non-specific binding control; 4 independent replicates; cells under steady state culture conditions", "note": "No constants are given. Whether binding was seen depends on the method and setting. Binding seen in cells or lysates may run through a third protein. Here binding means that the protein was enriched with, or labelled near, the bait; the list need not be complete."}
{"binder": "AUTS2 (protein, UniProt Q8WXX7 1-1259) MDGPTRGHGLRKKRRSRSQRDRERRSRGGLGAGAAGGGGAGRTRALSLASSSGSDKEDNGKPPSSAPSRPRPPRRKRRESTSAEEDIIDGFAMTSFVTFEALEKDVALKPQERVEKRQTPLTKKKREALTNGLSFHSKKSRLSHPHHYSSDRENDRNLCQHLGKRKKMPKALRQLKPGQNSCRDSDSESASGESKGFHRSSSRERLSDSSAPSSLGTGYFCDSDSDQEEKASDASSEKLFNTVIVNKDPELGVGTLPEHDSQDAGPIVPKISGLERSQEKSQDCCKEPIFEPVVLKDPCPQVAQPIPQPQTEPQLRAPSPDPDLVQRTEAPPQPPPLSTQPPQGPPEAQLQPAPQPQVQRPPRPQSPTQLLHQNLPPVQAHPSAQSLSQPLSAYNSSSLSLNSLSSSRSSTPAKTQPAPPHISHHPSASPFPLSLPNHSPLHSFTPTLQPPAHSHHPNMFAPPTALPPPPPLTSGSLQVAGHPAGSTYSEQDILRQELNTRFLASQSADRGASLGPPPYLRTEFHQHQHQHQHTHQHTHQHTFTPFPHAIPPTAIMPTPAPPMFDKYPTKVDPFYRHSLFHSYPPAVSGIPPMIPPTGPFGSLQGAFQPKTSNPIDVAARPGTVPHTLLQKDPRLTDPFRPMLRKPGKWCAMHVHIAWQIYHHQQKVKKQMQSDPHKLDFGLKPEFLSRPPGPSLFGAIHHPHDLARPSTLFSAAGAAHPTGTPFGPPPHHSNFLNPAAHLEPFNRPSTFTGLAAVGGNAFGGLGNPSVTPNSMFGHKDGPSVQNFSNPHEPWNRLHRTPPSFPTPPPWLKPGELERSASAAAHDRDRDVDKRDSSVSKDDKERESVEKRHSSHPSPAPVLPVNALGHTRSSTEQIRAHLNTEAREKDKPKERERDHSESRKDLAADEHKAKEGHLPEKDGHGHEGRAAGEEAKQLARVPSPYVRTPVVESARPNSTSSREAEPRKGEPAYENPKKSSEVKVKEERKEDHDLPPEAPQTHRASEPPPPNSSSSVHPGPLASMPMTVGVTGIHPMNSISSLDRTRMMTPFMGISPLPGGERFPYPSFHWDPIRDPLRDPYRELDIHRRDPLGRDFLLRNDPLHRLSTPRLYEADRSFRDREPHDYSHHHHHHHHPLSVDPRREHERGGHLDERERLHMLREDYEHTRLHSVHPASLDGHLPHPSLITPGLPSMHYPRISPTAGNQNGLLNKTPPTAALSAPPPLISTLGGRPVSPRRTTPLSAEIRERPPSHTLKDIEAR", "values": [{"measurement": "binding", "result": "binds"}]}
{"binder": "NHSL2 (protein, UniProt Q5HYW2 1-1225) MPFYRRTVVPQRLCPRNPPQQLAELRDVSHLAALSLLRQLADLCGHSLALLEDLEGHLLALGRRTDSLYRRTVRLRRRLPCRLLGPEEDEEELAAANSGRENATATAHSRSSWRQPVNVFLSSGRPPSVEELLREAQLNLQSLLQEEYEEQYSEARLVGQTFRSSDEATKPTPNPRPQSARRLEFILMPTKRQLSEDETTTQGVRAPEASLSLSTTADKQTAWNSLFPLPILEEKRWPQLCSTQSDIVPINISGQQFDKHASLRHSLFNTETAVNPKSTLRRRRTIIGFSNFSQRDQGHSNSPAGSVAHSTTSDIRPSHSVPEGVHGRVAVGQDARFPSLTSPVLRTPSSEPDEPHQARSGPNPPGMESMGMVYSVPSSCNGPTESTFSTSWKGDAFTYMTPSATSQSNQVNENGKNPSCGNSWVSLNKVPPLVPKEAATLLVARDNPAGCSGSAGYPERLIQQRHMPERPSKIGLLTSGTSRLETGPGGASRFRERSLSVPTDSGTTDVDYDEEQKANEACALPFASTSSEGSNSADNIASLSAQQEAQHRRQRSKSISLRKAKKKPSPPTRSVSLVKDEPGLLPEGGSALPKDQRPKSLCLSLEHQGHHSSHPDAQGHPAIPNHKDPESTQFSHHWYLTDWKSGDTYQSLSSSSTATGTTVIECTQVQGSSESLASPSTSRATTPSQLSIEVEAREISSPGRPPGLMSPSSGYSSQSETPTPTVSMSLTLGHLPPPSSSVRVRPVVPERKSSLPPTSPMEKFPKSRLSFDLPLTSSPNLDLSGMSISIRSKTKVSRHHSETNFGVKLAQKTNPNQPIMPMVTQSDLRSVRLRSVSKSEPEDDIESPEYAEEPRAEEVFTLPERKTKPPVAEKPPVARRPPSLVHKPPSVPEEYALTSPTLAMPPRSSIQHARPLPQDSYTVVRKPKPSSFPDGRSPGESTAPSSLVFTPFASSSDAFFSGTQQPPQGSVEDEGPKVRVLPERISLQSQEEAEKKKGKIPPPVPKKPSVLYLPLTSPTAQMEAYVAEPRLPLSPIITLEEDTKCPATGDDLQSLGQRVTSTPQADSEREASPLGSSVEPGTEEKSLISDKTAEWIAEDDDDVFVASRTTEDLFTVIHRSKRKLLGWKEPGEAFVGGRTSSHSPIKNTAESPISESTATAGSGSSANLDAGRNDDFKALLQKKGSKATPRSRPSAAELLKTTNPLARRIIAQFSKDYETTDNPST", "values": [{"measurement": "binding", "result": "binds"}]}
{"binder": "ADAR (protein, UniProt P55265 1-1226) MNPRQGYSLSGYYTHPFQGYEHRQLRYQQPGPGSSPSSFLLKQIEFLKGQLPEAPVIGKQTPSLPPSLPGLRPRFPVLLASSTRGRQVDIRGVPRGVHLRSQGLQRGFQHPSPRGRSLPQRGVDCLSSHFQELSIYQDQEQRILKFLEELGEGKATTAHDLSGKLGTPKKEINRVLYSLAKKGKLQKEAGTPPLWKIAVSTQAWNQHSGVVRPDGHSQGAPNSDPSLEPEDRNSTSVSEDLLEPFIAVSAQAWNQHSGVVRPDSHSQGSPNSDPGLEPEDSNSTSALEDPLEFLDMAEIKEKICDYLFNVSDSSALNLAKNIGLTKARDINAVLIDMERQGDVYRQGTTPPIWHLTDKKRERMQIKRNTNSVPETAPAAIPETKRNAEFLTCNIPTSNASNNMVTTEKVENGQEPVIKLENRQEARPEPARLKPPVHYNGPSKAGYVDFENGQWATDDIPDDLNSIRAAPGEFRAIMEMPSFYSHGLPRCSPYKKLTECQLKNPISGLLEYAQFASQTCEFNMIEQSGPPHEPRFKFQVVINGREFPPAEAGSKKVAKQDAAMKAMTILLEEAKAKDSGKSEESSHYSTEKESEKTAESQTPTPSATSFFSGKSPVTTLLECMHKLGNSCEFRLLSKEGPAHEPKFQYCVAVGAQTFPSVSAPSKKVAKQMAAEEAMKALHGEATNSMASDNQPEGMISESLDNLESMMPNKVRKIGELVRYLNTNPVGGLLEYARSHGFAAEFKLVDQSGPPHEPKFVYQAKVGGRWFPAVCAHSKKQGKQEAADAALRVLIGENEKAERMGFTEVTPVTGASLRRTMLLLSRSPEAQPKTLPLTGSTFHDQIAMLSHRCFNTLTNSFQPSLLGRKILAAIIMKKDSEDMGVVVSLGTGNRCVKGDSLSLKGETVNDCHAEIISRRGFIRFLYSELMKYNSQTAKDSIFEPAKGGEKLQIKKTVSFHLYISTAPCGDGALFDKSCSDRAMESTESRHYPVFENPKQGKLRTKVENGEGTIPVESSDIVPTWDGIRLGERLRTMSCSDKILRWNVLGLQGALLTHFLQPIYLKSVTLGYLFSQGHLTRAICCRVTRDGSAFEDGLRHPFIVNHPKVGRVSIYDSKRQSGKTKETSVNWCLADGYDLEILDGTRGTVDGPRNELSRVSKKNIFLLFKKLCSFRYRRDLLRLSYGEAKKAARDYETAKNYFKKGLKDMGYGNWISKPQEEKNFYLCPV", "values": [{"measurement": "binding", "result": "binds"}]}
{"binder": "BRIX1 (protein, UniProt Q8TDN6 1-353) MAATKRKRRGGFAVQAKKPKRNEIDAEPPAKRHATAEEVEEEERDRIPGPVCKGKWKNKERILIFSSRGINFRTRHLMQDLRMLMPHSKADTKMDRKDKLFVINEVCEMKNCNKCIYFEAKKKQDLYMWLSNSPHGPSAKFLVQNIHTLAELKMTGNCLKGSRPLLSFDPAFDELPHYALLKELLIQIFSTPRYHPKSQPFVDHVFTFTILDNRIWFRNFQIIEEDAALVEIGPRFVLNLIKIFQGSFGGPTLYENPHYQSPNMHRRVIRSITAAKYREKQQVKDVQKLRKKEPKTLLPHDPTADVFVTPAEEKPIEIQWVKPEPKVDLKARKKRIYKRQRKMKQRMDSGKTK", "values": [{"measurement": "binding", "result": "binds"}]}
{"binder": "HSPA14 (protein, UniProt Q0VDF9 1-509) MAAIGVHLGCTSACVAVYKDGRAGVVANDAGDRVTPAVVAYSENEEIVGLAAKQSRIRNISNTVMKVKQILGRSSSDPQAQKYIAESKCLVIEKNGKLRYEIDTGEETKFVNPEDVARLIFSKMKETAHSVLGSDANDVVITVPFDFGEKQKNALGEAARAAGFNVLRLIHEPSAALLAYGIGQDSPTGKSNILVFKLGGTSLSLSVMEVNSGIYRVLSTNTDDNIGGAHFTETLAQYLASEFQRSFKHDVRGNARAMMKLTNSAEVAKHSLSTLGSANCFLDSLYEGQDFDCNVSRARFELLCSPLFNKCIEAIRGLLDQNGFTADDINKVVLCGGSSRIPKLQQLIKDLFPAVELLNSIPPDEVIPIGAAIEAGILIGKENLLVEDSLMIECSARDILVKGVDESGASRFTVLFPSGTPLPARRQHTLQAPGSISSVCLELYESDGKNSAKEETKFAQVVLQDLDKKENGLRDILAVLTMKRDGSLHVTCTDQETGKCEAISIEIAS", "values": [{"measurement": "binding", "result": "binds"}]}
{"binder": "PSPC1 (protein, UniProt Q8WXF1 1-523) MMLRGNLKQVRIEKNPARLRALESAVGESEPAAAAAMALALAGEPAPPAPAPPEDHPDEEMGFTIDIKSFLKPGEKTYTQRCRLFVGNLPTDITEEDFKRLFERYGEPSEVFINRDRGFGFIRLESRTLAEIAKAELDGTILKSRPLRIRFATHGAALTVKNLSPVVSNELLEQAFSQFGPVEKAVVVVDDRGRATGKGFVEFAAKPPARKALERCGDGAFLLTTTPRPVIVEPMEQFDDEDGLPEKLMQKTQQYHKEREQPPRFAQPGTFEFEYASRWKALDEMEKQQREQVDRNIREAKEKLEAEMEAARHEHQLMLMRQDLMRRQEELRRLEELRNQELQKRKQIQLRHEEEHRRREEEMIRHREQEELRRQQEGFKPNYMENREQEMRMGDMGPRGAINMGDAFSPAPAGNQGPPPMMGMNMNNRATIPGPPMGPGPAMGPEGAANMGTPMMPDNGAVHNDRFPQGPPSQMGSPMGSRTGSETPQAPMSGVGPVSGGPGGFGRGSQGGNFEGPNKRRRY", "values": [{"measurement": "binding", "result": "binds"}]}
